Data source: PubChem BioAssay AID1259264 (Sanger Institute, 2017)
Test: 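Kinases needed for CL40 growth and those that boost anti-cancer drug killing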 (primary screen). System: CL40 human colorectal cancer cells. Knock-down reagent: siRNA pool against human genes. Treatment: DMSO, or an anchor drug: BYL719 at 1 µM, cetuximab at 5 µg/ml, or trametinib at 10 nM. Measurement: 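Viability as a fraction of non-targeting pool control (replicates averaged), control-based robust z-score, plus averaged synergy for each drug: BYL719 1 µM, cetuximab 5 µg/ml, trametinib 10 nM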. Scale: robust z-score, siRNA alone: higher = more viable cells. Active means: 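Essential call: siRNA with no drug reaches a robust z under -3 (low cell count); drug synergy scores do not affect it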. Calls: active = essential (lowers viability alone); inactive = not essential.
Shown is an unselected part of 794 reagents tested. In the full data, 15 (1.9%) are marked active. 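Calls rest on knock-down alone at z-score below -3; synergy scores with the three drugs do not decide them.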 Unmarked entries are inactive. Not all columns of the deposit are shown. Reagent sequences are not shown. The record does not give: the amount of reagent, the time to read-out.

Against KCNH8, the values are robust z-score, siRNA alone -0.383.
TEC gave robust z-score, siRNA alone 0.539.
Against CDC42BPA, the entry reads robust z-score, siRNA alone -0.491.
MAP4K2 showed robust z-score, siRNA alone 0.435.
MPP2 scored robust z-score, siRNA alone -0.166.
Depletion of TTK came out at: robust z-score, siRNA alone -1.32.

Quoted from the listing for reference:
MPP2 → robust z-score, siRNA alone = -0.166
TTK → robust z-score, siRNA alone = -1.32

Additional entries:
After knock-down of SOS2, the screen gave robust z-score, siRNA alone 0.539.
After knock-down of MED24, the record shows robust z-score, siRNA alone 0.539.
ALPK3 showed robust z-score, siRNA alone 0.00613.
After knock-down of RIOK3, the record shows robust z-score, siRNA alone 0.539.
After knock-down of HIPK4, the screen gave robust z-score, siRNA alone 0.539.
STRADB scored robust z-score, siRNA alone 0.539.
